Assay results from article doi:10.1101/2023.01.31.526478.

The chains behind the UniProt entries cited, without tags or fusion partners.
UniProt Q9Y657: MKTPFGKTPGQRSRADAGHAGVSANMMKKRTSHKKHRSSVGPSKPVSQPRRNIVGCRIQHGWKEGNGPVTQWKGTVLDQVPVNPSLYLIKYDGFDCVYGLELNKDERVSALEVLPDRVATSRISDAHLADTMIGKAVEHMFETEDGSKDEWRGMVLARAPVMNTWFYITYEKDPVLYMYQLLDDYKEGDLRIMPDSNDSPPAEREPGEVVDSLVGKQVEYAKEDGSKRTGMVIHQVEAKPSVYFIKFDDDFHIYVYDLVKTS
UniProt P83916: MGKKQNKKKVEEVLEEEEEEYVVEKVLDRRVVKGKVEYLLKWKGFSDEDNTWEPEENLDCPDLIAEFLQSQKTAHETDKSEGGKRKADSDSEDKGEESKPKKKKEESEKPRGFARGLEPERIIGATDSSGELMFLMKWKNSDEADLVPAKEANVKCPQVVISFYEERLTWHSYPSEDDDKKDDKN
UniProt Q13185: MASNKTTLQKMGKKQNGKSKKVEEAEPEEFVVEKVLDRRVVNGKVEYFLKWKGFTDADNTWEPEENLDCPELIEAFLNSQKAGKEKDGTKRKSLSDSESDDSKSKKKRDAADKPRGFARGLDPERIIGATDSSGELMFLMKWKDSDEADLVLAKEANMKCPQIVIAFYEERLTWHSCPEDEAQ
UniProt P45973: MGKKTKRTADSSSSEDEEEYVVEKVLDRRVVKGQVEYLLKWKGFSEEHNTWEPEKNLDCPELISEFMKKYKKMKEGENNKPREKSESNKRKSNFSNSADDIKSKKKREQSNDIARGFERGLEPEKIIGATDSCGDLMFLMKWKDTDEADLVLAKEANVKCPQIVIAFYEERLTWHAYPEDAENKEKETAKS
UniProt P48643: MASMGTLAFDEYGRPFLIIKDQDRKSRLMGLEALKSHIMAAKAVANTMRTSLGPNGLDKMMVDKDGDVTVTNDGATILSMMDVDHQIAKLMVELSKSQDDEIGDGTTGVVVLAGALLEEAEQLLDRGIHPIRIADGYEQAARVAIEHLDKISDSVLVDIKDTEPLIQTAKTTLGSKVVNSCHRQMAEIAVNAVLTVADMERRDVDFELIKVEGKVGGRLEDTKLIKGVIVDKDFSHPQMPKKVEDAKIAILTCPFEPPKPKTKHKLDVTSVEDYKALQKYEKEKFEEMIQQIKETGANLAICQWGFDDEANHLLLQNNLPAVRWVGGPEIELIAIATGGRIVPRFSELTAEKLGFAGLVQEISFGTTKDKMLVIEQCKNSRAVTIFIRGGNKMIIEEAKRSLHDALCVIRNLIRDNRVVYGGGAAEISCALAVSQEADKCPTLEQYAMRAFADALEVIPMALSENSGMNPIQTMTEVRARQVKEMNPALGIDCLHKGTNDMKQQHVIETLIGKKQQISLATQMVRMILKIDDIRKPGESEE
UniProt Q9C005: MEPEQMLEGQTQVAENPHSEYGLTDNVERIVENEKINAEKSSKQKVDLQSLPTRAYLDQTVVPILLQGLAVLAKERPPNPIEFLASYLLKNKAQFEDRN
UniProt Q03164: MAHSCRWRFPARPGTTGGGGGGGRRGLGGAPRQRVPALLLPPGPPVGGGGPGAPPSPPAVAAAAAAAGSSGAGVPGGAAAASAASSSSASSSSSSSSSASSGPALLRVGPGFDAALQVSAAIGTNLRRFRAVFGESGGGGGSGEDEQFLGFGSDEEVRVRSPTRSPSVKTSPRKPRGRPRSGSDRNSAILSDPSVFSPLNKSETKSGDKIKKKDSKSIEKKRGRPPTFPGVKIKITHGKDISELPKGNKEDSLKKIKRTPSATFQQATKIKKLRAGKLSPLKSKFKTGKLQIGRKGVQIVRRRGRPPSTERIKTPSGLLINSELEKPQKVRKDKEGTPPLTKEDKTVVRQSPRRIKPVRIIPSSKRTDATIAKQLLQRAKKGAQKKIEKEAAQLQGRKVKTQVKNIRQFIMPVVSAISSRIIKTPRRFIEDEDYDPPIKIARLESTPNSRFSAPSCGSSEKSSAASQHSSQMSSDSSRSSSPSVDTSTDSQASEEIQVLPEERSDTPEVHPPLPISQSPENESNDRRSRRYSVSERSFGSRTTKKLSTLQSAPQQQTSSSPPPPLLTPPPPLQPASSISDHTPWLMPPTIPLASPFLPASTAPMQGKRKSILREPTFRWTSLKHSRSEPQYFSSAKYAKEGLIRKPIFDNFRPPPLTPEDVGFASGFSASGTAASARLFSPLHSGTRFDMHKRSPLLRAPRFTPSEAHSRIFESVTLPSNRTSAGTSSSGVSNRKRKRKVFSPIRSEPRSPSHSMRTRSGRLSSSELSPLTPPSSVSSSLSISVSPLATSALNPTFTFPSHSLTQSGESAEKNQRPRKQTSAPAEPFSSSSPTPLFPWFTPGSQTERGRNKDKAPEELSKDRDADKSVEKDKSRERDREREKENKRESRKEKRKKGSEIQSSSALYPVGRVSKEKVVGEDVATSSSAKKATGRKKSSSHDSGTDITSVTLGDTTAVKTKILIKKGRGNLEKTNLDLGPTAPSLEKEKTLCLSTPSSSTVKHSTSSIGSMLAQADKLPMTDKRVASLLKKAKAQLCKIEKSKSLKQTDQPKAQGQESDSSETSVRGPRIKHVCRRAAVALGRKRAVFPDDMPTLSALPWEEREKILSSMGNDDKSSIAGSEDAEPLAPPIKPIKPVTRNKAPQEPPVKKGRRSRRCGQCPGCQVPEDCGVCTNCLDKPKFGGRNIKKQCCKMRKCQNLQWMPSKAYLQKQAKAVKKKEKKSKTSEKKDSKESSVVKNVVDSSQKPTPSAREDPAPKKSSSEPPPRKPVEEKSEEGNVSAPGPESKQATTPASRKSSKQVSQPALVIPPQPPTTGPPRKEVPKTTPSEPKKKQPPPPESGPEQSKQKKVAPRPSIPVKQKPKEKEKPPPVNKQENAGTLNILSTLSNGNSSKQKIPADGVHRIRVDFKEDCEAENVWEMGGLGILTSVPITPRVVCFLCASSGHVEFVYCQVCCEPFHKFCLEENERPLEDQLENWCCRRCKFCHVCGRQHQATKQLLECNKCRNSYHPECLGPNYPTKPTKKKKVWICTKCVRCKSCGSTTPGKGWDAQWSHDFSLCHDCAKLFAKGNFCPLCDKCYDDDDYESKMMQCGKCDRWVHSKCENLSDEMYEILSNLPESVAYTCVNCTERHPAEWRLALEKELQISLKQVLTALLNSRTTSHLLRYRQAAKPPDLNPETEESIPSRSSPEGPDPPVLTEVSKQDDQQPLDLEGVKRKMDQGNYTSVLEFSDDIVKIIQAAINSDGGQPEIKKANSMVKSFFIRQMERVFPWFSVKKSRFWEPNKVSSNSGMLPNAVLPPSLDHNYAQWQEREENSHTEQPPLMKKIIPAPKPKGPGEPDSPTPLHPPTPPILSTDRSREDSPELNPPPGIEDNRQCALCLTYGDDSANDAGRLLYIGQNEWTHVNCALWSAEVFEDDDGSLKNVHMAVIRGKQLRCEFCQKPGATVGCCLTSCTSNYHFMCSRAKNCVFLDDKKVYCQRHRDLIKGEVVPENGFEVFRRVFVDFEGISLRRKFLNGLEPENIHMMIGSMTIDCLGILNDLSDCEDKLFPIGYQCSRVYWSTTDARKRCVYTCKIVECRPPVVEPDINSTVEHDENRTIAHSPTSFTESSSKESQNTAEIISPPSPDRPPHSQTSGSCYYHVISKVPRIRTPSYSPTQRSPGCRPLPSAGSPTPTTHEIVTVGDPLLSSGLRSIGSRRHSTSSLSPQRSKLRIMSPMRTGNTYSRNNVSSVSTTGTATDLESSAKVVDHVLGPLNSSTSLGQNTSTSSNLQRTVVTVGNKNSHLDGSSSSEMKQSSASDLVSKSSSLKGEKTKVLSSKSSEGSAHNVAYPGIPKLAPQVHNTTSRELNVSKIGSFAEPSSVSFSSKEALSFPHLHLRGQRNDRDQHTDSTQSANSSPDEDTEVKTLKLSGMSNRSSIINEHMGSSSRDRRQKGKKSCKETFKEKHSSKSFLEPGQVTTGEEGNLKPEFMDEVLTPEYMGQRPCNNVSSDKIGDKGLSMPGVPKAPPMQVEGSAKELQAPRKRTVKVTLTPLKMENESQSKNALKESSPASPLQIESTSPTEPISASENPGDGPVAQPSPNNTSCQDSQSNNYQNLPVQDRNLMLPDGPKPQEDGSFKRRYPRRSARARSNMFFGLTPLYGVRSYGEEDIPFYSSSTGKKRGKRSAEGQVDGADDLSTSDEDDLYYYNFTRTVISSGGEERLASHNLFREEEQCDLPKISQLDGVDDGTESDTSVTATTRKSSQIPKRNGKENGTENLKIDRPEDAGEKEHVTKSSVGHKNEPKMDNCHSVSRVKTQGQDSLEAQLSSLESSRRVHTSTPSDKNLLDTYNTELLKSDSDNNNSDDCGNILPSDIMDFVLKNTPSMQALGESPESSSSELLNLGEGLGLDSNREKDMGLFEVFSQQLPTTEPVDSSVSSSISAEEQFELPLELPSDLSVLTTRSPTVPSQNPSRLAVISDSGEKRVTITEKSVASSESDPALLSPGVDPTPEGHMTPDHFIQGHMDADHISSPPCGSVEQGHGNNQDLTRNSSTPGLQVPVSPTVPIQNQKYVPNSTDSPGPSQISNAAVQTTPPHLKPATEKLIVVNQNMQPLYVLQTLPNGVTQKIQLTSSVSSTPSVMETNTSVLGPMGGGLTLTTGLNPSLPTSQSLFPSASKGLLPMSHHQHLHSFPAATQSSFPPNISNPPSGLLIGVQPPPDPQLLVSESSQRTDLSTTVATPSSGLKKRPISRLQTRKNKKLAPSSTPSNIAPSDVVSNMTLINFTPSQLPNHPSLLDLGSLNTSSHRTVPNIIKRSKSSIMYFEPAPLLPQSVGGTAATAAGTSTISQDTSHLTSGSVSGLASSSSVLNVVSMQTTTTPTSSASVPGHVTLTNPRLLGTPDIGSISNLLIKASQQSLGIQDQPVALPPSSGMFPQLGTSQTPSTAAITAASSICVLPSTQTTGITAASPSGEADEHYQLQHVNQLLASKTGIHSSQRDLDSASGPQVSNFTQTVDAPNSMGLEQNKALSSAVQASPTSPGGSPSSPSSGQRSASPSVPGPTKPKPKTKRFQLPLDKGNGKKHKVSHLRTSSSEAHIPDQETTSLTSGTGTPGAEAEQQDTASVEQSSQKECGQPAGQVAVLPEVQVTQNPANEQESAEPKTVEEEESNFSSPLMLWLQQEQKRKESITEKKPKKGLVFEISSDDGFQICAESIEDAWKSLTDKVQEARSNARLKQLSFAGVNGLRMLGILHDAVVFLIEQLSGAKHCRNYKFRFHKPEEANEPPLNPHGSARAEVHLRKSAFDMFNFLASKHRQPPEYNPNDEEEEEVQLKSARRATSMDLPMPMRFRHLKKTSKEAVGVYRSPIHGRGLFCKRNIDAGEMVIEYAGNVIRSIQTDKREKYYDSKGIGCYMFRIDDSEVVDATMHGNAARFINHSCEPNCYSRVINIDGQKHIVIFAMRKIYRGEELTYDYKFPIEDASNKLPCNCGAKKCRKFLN
UniProt O00255: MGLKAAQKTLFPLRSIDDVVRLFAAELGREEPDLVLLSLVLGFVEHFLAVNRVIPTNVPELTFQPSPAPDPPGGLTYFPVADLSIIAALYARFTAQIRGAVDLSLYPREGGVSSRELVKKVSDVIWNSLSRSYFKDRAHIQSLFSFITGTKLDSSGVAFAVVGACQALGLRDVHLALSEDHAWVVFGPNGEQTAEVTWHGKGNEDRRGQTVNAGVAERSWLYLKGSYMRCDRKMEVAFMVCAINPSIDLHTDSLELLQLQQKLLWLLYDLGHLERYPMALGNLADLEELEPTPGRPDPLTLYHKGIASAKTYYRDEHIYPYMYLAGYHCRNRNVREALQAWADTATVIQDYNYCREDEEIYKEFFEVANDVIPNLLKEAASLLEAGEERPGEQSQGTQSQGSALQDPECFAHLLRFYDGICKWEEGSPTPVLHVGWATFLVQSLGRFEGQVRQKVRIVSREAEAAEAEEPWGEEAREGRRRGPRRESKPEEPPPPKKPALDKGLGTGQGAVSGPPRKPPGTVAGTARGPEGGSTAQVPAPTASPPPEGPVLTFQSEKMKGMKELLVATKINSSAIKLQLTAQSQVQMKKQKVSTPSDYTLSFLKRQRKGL
UniProt Q15291: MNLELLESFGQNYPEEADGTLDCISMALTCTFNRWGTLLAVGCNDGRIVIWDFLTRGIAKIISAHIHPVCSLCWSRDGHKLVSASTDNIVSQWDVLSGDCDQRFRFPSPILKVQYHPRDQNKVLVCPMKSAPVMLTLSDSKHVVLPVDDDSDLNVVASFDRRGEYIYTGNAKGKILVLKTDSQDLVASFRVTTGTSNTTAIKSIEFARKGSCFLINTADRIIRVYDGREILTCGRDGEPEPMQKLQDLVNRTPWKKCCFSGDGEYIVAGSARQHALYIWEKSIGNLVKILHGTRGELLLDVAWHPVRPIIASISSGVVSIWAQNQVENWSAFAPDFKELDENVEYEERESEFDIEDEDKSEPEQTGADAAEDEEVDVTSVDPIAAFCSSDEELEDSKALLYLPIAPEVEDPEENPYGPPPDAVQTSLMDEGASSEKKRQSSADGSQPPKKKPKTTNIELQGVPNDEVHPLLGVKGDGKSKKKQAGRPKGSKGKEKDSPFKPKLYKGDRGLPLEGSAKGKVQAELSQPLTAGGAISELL

Columns and labels:
Halo-SPIN1 (human) = Halo-SPIN1 (human) (UniProt Q9Y657); assay: affinity purification with mass spectrometry
Halo-WDR76 (human) = molecular target: T1, Halo-WDR76 (human) (UniProt Q9H967); assay: affinity purification with mass spectrometry
T1 sequence (chain, HaloTag TMRDirect ligand on the Halo tag (imaging experiments only)): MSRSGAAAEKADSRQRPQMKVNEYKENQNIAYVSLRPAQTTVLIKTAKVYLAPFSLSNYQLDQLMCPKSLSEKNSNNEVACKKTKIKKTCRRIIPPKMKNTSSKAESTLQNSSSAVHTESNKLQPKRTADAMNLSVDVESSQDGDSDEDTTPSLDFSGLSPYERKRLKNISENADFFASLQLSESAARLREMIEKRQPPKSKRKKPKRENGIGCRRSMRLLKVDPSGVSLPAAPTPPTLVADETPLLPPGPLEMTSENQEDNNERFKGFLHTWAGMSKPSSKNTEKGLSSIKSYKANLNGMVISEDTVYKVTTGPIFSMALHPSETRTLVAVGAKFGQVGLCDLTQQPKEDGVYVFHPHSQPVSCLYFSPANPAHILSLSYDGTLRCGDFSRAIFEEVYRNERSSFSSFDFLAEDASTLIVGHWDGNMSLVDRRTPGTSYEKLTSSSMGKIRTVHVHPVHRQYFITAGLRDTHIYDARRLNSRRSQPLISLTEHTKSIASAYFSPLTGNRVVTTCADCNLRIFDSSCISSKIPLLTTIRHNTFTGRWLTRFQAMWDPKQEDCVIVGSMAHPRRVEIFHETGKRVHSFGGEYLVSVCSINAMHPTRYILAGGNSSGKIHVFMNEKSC

## ASH2L (from UniProt Q9UBL3 1-628)
Halo-SPIN1 (human)
  binding: binds

## BCLAF1 (from UniProt Q9NYF8 1-920)
Halo-SPIN1 (human)
  binding: binds

## CBX1 (from UniProt P83916 1-185)
Halo-WDR76 (human)
  binding: binds

## CBX3 (from UniProt Q13185 1-183)
Halo-WDR76 (human)
  binding: binds

## CBX5 (from UniProt P45973 1-191)
Halo-WDR76 (human)
  binding: binds

## CCT5 (from UniProt P48643 1-541)
Halo-WDR76 (human)
  binding: binds

## CCT7 (from UniProt Q99832 1-543)
Halo-WDR76 (human)
  binding: binds

## CCT8 (from UniProt P50990 1-548)
Halo-WDR76 (human)
  binding: binds

## DDB1 (from UniProt Q16531 1-1140)
Halo-WDR76 (human)
  binding: binds

## DNA-PKcs (PRKDC) (from UniProt P78527 1-4128)
Halo-WDR76 (human)
  binding: binds

## DPY30 (from UniProt Q9C005 1-99)
Halo-SPIN1 (human)
  binding: binds

## HDAC1 (from UniProt Q13547 1-482)
Halo-WDR76 (human)
  binding: binds

## HDAC2 (from UniProt Q92769 1-488)
Halo-WDR76 (human)
  binding: binds

## HUWE1 (from UniProt Q7Z6Z7 1-4374)
Halo-WDR76 (human)
  binding: binds

## KMT2A (from UniProt Q03164)
Halo-SPIN1 (human)
  binding: binds

## KMT2B (from UniProt Q9UMN6 1-2715)
Halo-SPIN1 (human)
  binding: binds

## MEN1 (from UniProt O00255 1-610)
Halo-SPIN1 (human)
  binding: binds

## PARP1 (from UniProt P09874)
Halo-WDR76 (human)
  binding: binds

## PRMT1 (from UniProt Q99873 1-371)
Halo-SPIN1 (human)
  binding: binds

## RAD23B (from UniProt P54727 1-409)
Halo-WDR76 (human)
  binding: binds

## RBBP5 (from UniProt Q15291 1-538)
Halo-SPIN1 (human)
  binding: binds

## SIRT1 (from UniProt Q96EB6)
Halo-WDR76 (human)
  binding: binds

## UBR5 (from UniProt O95071 1-2799)
Halo-WDR76 (human)
  binding: binds

## USP7 (from UniProt Q93009 1-1102)
Halo-WDR76 (human)
  binding: binds

## USP9X (from UniProt Q93008 1-2554)
Halo-WDR76 (human)
  binding: binds

## USP11 (from UniProt P51784 1-963)
Halo-WDR76 (human)
  binding: binds

## XRCC5 (from UniProt P13010 1-732)
Halo-WDR76 (human)
  binding: binds

## XRCC6 (from UniProt P12956 1-609)
Halo-WDR76 (human)
  binding: binds

## lamin-B receptor (LBR) (from UniProt Q14739 1-615)
Halo-SPIN1 (human)
  binding: binds

B1: FBL (protein, UniProt P22087 1-321)
chain: MKPGFSPRGGGFGGRGGFGDRGGRGGRGGFGGGRGRGGGFRGRGRGGGGGGGGGGGGGRGGGGFHSGGNRGRGRGGKRGNQSGKNVMVEPHRHEGVFICRGKEDALVTKNLVPGESVYGEKRVSISEGDDKIEYRAWNPFRSKLAAAILGGVDQIHIKPGAKVLYLGAASGTTVSHVSDIVGPDGLVYAVEFSHRSGRDLINLAKKRTNIIPVIEDARHPHKYRMLIAMVDVIFADVAQPDQTRIVALNAHTFLRNGGHFVISIKANCIDSTASAEAVFASEVKKMQQENMKPQEQLTLEPYERDHAVVVGVYRPPPKVKN
Halo-SPIN1 (human)
  binding: binds

B2: CCT2 (protein, UniProt P78371 1-535)
chain: MASLSLAPVNIFKAGADEERAETARLTSFIGAIAIGDLVKSTLGPKGMDKILLSSGRDASLMVTNDGATILKNIGVDNPAAKVLVDMSRVQDDEVGDGTTSVTVLAAELLREAESLIAKKIHPQTIIAGWREATKAAREALLSSAVDHGSDEVKFRQDLMNIAGTTLSSKLLTHHKDHFTKLAVEAVLRLKGSGNLEAIHIIKKLGGSLADSYLDEGFLLDKKIGVNQPKRIENAKILIANTGMDTDKIKIFGSRVRVDSTAKVAEIEHAEKEKMKEKVERILKHGINCFINRQLIYNYPEQLFGAAGVMAIEHADFAGVERLALVTGGEIASTFDHPELVKLGSCKLIEEVMIGEDKLIHFSGVALGEACTIVLRGATQQILDEAERSLHDALCVLAQTVKDSRTVYGGGCSEMLMAHAVTQLANRTPGKEAVAMESYAKALRMLPTIIADNAGYDSADLVAQLRAAHSEGNTTAGLDMREGTIGDMAILGITESFQVKRQVLLSAAEAAEVILRVDNIIKAAPRKRVPDHHPC
Halo-WDR76 (human)
  binding: binds

B3: HELLS (protein, UniProt Q9NRZ9 1-838)
chain: MPAERPAGSGGSEAPAMVEQLDTAVITPAMLEEEEQLEAAGLERERKMLEKARMSWDRESTEIRYRRLQHLLEKSNIYSKFLLTKMEQQQLEEQKKKEKLERKKESLKVKKGKNSIDASEEKPVMRKKRGREDESYNISEVMSKEEILSVAKKNKKENEDENSSSTNLCVEDLQKNKDSNSIIKDRLSETVRQNTKFFFDPVRKCNGQPVPFQQPKHFTGGVMRWYQVEGMEWLRMLWENGINGILADEMGLGKTVQCIATIALMIQRGVPGPFLVCGPLSTLPNWMAEFKRFTPDIPTMLYHGTQEERQKLVRNIYKRKGTLQIHPVVITSFEIAMRDRNALQHCYWKYLIVDEGHRIKNMKCRLIRELKRFNADNKLLLTGTPLQNNLSELWSLLNFLLPDVFDDLKSFESWFDITSLSETAEDIIAKEREQNVLHMLHQILTPFLLRRLKSDVALEVPPKREVVVYAPLSKKQEIFYTAIVNRTIANMFGSSEKETIELSPTGRPKRRTRKSINYSKIDDFPNELEKLISQIQPEVDRERAVVEVNIPVESEVNLKLQNIMMLLRKCCNHPYLIEYPIDPVTQEFKIDEELVTNSGKFLILDRMLPELKKRGHKVLLFSQMTSMLDILMDYCHLRDFNFSRLDGSMSYSEREKNMHSFNTDPEVFIFLVSTRAGGLGINLTAADTVIIYDSDWNPQSDLQAQDRCHRIGQTKPVVVYRLVTANTIDQKIVERAAAKRKLEKLIIHKNHFKGGQSGLNLSKNFLDPKELMELLKSRDYEREIKGSREKVISDKDLELLLDRSDLIDQMNASGPIKEKMGIFKILENSEDSSPECLF
Halo-WDR76 (human)
  binding: binds

B4: GAN (gigaxonin) (protein, UniProt Q9H2C0 1-597)
chain: MAEGSAVSDPQHAARLLRALSSFREESRFCDAHLVLDGEEIPVQKNILAAASPYIRTKLNYNPPKDDGSTYKIELEGISVMVMREILDYIFSGQIRLNEDTIQDVVQAADLLLLTDLKTLCCEFLEGCIAAENCIGIRDFALHYCLHHVHYLATEYLETHFRDVSSTEEFLELSPQKLKEVISLEKLNVGNERYVFEAVIRWIAHDTEIRKVHMKDVMSALWVSGLDSSYLREQMLNEPLVREIVKECSNIPLSQPQQGEAMLANFKPRGYSECIVTVGGEERVSRKPTAAMRCMCPLYDPNRQLWIELAPLSMPRINHGVLSAEGFLFVFGGQDENKQTLSSGEKYDPDANTWTALPPMNEARHNFGIVEIDGMLYILGGEDGEKELISMECYDIYSKTWTKQPDLTMVRKIGCYAAMKKKIYAMGGGSYGKLFESVECYDPRTQQWTAICPLKERRFGAVACGVAMELYVFGGVRSREDAQGSEMVTCKSEFYHDEFKRWIYLNDQNLCIPASSSFVYGAVPIGASIYVIGDLDTGTNYDYVREFKRSTGTWHHTKPLLPSDLRRTGCAALRIANCKLFRLQLQQGLFRIRVHSP
Halo-WDR76 (human)
  binding: binds

B5: THRAP3 (protein, UniProt Q9Y2W1 1-955)
chain: MSKTNKSKSGSRSSRSRSASRSRSRSFSKSRSRSRSLSRSRKRRLSSRSRSRSYSPAHNRERNHPRVYQNRDFRGHNRGYRRPYYFRGRNRGFYPWGQYNRGGYGNYRSNWQNYRQAYSPRRGRSRSRSPKRRSPSPRSRSHSRNSDKSSSDRSRRSSSSRSSSNHSRVESSKRKSAKEKKSSSKDSRPSQAAGDNQGDEAKEQTFSGGTSQDTKASESSKPWPDATYGTGSASRASAVSELSPRERSPALKSPLQSVVVRRRSPRPSPVPKPSPPLSSTSQMGSTLPSGAGYQSGTHQGQFDHGSGSLSPSKKSPVGKSPPSTGSTYGSSQKEESAASGGAAYTKRYLEEQKTENGKDKEQKQTNTDKEKIKEKGSFSDTGLGDGKMKSDSFAPKTDSEKPFRGSQSPKRYKLRDDFEKKMADFHKEEMDDQDKDKAKGRKESEFDDEPKFMSKVIGANKNQEEEKSGKWEGLVYAPPGKEKQRKTEELEEESFPERSKKEDRGKRSEGGHRGFVPEKNFRVTAYKAVQEKSSSPPPRKTSESRDKLGAKGDFPTGKSSFSITREAQVNVRMDSFDEDLARPSGLLAQERKLCRDLVHSNKKEQEFRSIFQHIQSAQSQRSPSELFAQHIVTIVHHVKEHHFGSSGMTLHERFTKYLKRGTEQEAAKNKKSPEIHRRIDISPSTFRKHGLAHDEMKSPREPGYKAEGKYKDDPVDLRLDIERRKKHKERDLKRGKSRESVDSRDSSHSRERSAEKTEKTHKGSKKQKKHRRARDRSRSSSSSSQSSHSYKAEEYTEETEEREESTTGFDKSRLGTKDFVGPSERGGGRARGTFQFRARGRGWGRGNYSGNNNNNSNNDFQKRNREEEWDPEYTPKSKKYYLHDDREGEGSDKWVSRGRGRGAFPRGRGRFMFRKSSTSPKWAHDKFSGEEGEIEDDESGTENREEKDNIQPTTE
Halo-SPIN1 (human)
  binding: binds

B6: DCAF7 (protein, UniProt P61962 1-342)
chain: MSLHGKRKEIYKYEAPWTVYAMNWSVRPDKRFRLALGSFVEEYNNKVQLVGLDEESSEFICRNTFDHPYPTTKLMWIPDTKGVYPDLLATSGDYLRVWRVGETETRLECLLNNNKNSDFCAPLTSFDWNEVDPYLLGTSSIDTTCTIWGLETGQVLGRVNLVSGHVKTQLIAHDKEVYDIAFSRAGGGRDMFASVGADGSVRMFDLRHLEHSTIIYEDPQHHPLLRLCWNKQDPNYLATMAMDGMEVVILDVRVPCTPVARLNNHRACVNGIAWAPHSSCHICTAADDHQALIWDIQQMPRAIEDPILAYTAEGEINNVQWASTQPDWIAICYNNCLEILRV
Halo-WDR76 (human)
  binding: binds

These are yes or no findings as the source states them, for the method shown. Binding seen in cells or lysates may run through a third protein. Here binding means that the protein was enriched with, or labelled near, the bait; the list need not be complete.
